Results published in the supplement of paper PMC10849652.
This is one part of the list.

The chains behind the UniProt entries cited, without tags or fusion partners. Where a name states a change or a piece, a line headed by the entry shows the natural chain unless it says otherwise.
UniProt P11388: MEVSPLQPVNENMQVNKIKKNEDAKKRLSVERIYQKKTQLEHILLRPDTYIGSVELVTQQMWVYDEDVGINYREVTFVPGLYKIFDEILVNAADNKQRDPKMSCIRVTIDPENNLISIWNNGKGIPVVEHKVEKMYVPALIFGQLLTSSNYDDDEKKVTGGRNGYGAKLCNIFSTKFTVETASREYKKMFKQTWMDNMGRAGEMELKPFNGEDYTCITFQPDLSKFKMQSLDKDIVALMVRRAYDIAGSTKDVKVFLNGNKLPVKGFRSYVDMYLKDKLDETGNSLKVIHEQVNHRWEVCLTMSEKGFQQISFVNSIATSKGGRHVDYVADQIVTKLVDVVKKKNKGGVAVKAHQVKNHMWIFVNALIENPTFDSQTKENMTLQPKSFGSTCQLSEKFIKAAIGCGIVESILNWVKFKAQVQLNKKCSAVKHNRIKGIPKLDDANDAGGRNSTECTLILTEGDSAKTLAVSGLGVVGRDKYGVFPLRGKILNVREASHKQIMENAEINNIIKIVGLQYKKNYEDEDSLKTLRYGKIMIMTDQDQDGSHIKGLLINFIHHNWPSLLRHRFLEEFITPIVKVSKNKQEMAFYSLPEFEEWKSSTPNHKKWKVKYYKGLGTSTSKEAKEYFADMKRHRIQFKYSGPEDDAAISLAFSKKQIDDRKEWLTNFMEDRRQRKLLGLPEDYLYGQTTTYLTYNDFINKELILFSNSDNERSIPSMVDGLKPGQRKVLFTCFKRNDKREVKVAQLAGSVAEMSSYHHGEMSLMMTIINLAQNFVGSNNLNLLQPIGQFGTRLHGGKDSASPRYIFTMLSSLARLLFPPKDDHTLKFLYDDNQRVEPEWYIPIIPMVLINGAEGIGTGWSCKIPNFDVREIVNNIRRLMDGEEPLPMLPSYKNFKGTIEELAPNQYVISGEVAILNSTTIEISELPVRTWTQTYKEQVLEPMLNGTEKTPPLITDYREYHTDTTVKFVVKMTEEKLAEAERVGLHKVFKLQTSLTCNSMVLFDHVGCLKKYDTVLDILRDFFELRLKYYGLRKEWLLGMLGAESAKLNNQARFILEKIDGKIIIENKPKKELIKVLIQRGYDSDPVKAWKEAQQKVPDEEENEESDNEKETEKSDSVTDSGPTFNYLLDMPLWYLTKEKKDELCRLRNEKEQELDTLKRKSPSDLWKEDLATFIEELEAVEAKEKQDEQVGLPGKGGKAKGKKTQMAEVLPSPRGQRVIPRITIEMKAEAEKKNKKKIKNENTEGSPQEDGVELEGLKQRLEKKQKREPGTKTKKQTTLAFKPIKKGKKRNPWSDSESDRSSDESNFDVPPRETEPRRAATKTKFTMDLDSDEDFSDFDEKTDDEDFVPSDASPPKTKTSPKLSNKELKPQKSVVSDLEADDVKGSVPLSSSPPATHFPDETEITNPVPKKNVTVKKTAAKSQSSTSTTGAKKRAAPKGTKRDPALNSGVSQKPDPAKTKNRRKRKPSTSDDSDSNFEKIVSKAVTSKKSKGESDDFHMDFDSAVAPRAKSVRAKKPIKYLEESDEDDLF
UniProt Q9NZR1: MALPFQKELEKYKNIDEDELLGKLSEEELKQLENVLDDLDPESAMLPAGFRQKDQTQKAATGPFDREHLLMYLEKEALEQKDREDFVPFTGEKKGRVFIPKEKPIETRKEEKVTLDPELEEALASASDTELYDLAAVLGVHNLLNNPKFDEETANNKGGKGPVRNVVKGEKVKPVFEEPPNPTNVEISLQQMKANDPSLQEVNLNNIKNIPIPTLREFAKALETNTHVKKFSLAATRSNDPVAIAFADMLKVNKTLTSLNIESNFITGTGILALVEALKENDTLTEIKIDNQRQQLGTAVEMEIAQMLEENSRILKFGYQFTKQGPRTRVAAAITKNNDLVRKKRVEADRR
UniProt Q15388, whole entry, looked up: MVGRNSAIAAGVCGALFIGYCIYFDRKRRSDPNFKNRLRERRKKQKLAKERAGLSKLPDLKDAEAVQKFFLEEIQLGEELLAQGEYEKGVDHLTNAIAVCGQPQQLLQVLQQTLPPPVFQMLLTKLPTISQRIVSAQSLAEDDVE
UniProt Q15785: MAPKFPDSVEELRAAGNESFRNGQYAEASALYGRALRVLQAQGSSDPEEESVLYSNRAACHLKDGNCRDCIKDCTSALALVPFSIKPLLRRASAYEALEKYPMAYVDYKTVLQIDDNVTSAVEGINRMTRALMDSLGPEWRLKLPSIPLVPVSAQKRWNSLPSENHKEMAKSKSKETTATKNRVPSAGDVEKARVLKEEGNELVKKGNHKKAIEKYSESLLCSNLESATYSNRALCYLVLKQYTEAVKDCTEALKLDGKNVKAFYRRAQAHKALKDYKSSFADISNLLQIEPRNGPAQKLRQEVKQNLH
UniProt Q8N511: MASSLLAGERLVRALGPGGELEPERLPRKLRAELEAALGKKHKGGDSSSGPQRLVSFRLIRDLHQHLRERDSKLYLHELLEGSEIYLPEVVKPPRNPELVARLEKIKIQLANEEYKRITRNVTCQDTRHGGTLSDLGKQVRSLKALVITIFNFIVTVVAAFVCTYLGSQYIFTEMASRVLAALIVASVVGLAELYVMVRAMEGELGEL
UniProt Q9UPQ9, whole entry, looked up: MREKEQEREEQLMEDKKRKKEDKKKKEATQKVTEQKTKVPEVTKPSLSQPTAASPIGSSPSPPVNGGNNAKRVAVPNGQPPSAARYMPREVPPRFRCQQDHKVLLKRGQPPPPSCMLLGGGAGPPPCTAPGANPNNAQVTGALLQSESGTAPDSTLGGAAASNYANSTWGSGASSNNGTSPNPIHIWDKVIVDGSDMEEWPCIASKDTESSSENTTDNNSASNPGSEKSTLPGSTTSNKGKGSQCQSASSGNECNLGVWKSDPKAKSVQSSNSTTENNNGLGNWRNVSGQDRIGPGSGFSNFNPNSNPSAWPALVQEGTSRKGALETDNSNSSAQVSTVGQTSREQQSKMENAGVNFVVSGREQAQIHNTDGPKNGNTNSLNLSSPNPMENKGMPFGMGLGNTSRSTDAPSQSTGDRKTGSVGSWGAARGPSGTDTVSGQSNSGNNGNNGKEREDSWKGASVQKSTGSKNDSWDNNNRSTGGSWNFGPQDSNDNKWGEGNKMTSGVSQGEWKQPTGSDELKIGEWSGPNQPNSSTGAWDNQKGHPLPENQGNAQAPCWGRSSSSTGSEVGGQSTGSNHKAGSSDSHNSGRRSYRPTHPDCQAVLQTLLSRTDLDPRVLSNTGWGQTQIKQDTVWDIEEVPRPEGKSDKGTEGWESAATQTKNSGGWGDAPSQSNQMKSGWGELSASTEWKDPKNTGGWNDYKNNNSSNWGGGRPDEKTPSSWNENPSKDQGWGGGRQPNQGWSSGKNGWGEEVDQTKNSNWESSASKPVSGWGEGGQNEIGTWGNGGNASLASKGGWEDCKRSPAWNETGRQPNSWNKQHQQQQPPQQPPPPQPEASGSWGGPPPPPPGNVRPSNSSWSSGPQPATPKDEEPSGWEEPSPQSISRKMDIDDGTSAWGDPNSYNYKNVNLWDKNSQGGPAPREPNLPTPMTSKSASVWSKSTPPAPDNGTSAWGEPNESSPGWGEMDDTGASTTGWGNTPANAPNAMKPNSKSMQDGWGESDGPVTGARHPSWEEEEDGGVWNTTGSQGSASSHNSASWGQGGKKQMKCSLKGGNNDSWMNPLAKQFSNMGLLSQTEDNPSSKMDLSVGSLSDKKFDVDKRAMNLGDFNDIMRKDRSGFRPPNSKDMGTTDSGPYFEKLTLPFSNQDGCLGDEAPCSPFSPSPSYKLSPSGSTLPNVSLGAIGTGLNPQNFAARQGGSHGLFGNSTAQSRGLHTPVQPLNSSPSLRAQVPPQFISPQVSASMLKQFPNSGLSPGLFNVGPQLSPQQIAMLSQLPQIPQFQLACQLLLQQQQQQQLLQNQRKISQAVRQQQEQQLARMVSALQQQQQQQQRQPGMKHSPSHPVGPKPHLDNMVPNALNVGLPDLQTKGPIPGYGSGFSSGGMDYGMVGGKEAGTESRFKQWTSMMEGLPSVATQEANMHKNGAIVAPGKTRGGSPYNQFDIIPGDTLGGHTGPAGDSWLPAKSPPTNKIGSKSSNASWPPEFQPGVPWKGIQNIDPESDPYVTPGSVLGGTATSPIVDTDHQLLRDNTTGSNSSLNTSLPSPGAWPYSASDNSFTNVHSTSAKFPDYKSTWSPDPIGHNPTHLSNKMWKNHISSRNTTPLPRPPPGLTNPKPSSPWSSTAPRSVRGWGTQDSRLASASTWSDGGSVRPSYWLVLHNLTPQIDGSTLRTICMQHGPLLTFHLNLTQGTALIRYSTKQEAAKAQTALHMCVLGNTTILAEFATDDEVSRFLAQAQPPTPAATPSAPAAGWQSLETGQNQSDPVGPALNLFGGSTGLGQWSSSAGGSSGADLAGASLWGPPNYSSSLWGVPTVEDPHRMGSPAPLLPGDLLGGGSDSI
UniProt Q9Y5L0: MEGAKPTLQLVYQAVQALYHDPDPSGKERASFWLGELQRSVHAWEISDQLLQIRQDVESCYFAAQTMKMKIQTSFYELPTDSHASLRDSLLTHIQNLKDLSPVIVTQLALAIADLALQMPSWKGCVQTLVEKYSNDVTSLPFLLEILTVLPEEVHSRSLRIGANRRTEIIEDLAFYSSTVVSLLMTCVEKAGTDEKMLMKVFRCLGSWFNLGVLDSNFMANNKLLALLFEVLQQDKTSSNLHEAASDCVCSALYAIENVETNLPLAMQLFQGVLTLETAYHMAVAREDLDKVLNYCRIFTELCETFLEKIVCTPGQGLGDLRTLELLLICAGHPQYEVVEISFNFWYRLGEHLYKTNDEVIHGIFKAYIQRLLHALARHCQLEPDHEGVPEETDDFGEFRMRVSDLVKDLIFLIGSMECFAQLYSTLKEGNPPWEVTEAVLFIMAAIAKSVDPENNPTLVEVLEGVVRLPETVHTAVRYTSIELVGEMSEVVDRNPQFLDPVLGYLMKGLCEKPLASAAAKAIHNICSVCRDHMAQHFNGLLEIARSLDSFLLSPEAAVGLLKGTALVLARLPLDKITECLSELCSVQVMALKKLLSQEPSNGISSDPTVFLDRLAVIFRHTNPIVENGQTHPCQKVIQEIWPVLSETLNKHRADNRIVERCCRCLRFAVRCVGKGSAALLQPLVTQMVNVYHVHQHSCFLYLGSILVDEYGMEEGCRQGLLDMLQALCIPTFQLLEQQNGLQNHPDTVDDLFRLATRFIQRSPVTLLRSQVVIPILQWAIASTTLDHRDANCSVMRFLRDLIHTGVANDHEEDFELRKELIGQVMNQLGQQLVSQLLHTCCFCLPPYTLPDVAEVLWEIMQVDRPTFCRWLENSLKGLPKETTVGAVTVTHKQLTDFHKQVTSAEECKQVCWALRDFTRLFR
UniProt Q9NXH8: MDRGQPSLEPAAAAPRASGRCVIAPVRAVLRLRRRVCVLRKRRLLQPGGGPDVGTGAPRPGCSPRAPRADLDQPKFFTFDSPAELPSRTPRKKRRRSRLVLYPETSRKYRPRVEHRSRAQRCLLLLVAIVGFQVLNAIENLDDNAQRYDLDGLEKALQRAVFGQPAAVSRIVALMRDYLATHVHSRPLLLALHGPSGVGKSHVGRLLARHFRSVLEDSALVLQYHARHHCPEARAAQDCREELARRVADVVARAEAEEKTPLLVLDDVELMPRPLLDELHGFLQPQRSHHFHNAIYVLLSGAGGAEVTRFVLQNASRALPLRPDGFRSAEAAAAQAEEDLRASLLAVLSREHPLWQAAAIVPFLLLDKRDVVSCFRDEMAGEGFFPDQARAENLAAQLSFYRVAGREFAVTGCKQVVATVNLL
UniProt Q9BUB7: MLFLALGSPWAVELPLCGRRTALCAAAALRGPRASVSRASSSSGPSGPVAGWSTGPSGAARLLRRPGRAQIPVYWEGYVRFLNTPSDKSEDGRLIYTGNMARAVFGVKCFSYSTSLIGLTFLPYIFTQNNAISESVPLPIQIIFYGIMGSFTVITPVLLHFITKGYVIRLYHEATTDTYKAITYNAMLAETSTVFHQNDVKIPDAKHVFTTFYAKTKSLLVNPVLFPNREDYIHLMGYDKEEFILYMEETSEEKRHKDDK

Assays:
Assay in all cases: log2 fold change, soluble protein after heating vs DMSO (PISA); higher = thermal stabilisation; K562 lysate, 10 uM; active = over 0.2 and 3.5 SD of the protein, either way, in both replicates (recomputed)
[1] = compound: C=CC(=O)N1CCC[C@@H](n2nc(-c3ccc(Oc4ccccc4)cc3)c3c(N)ncnc32)C1 [ibrutinib]
Summary of the method: (§1)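 K562 pellets were dounce-homogenised in PBS pH 7.4 containing 1 mM MgCl2, and the crude extract, at 1 mg/mL protein, was exposed to 10 μM compound for 30 min. Aliquots were heated for 3 min across 48°C-58°C, pooled, brought to 0.5% NP-40 at 4°C and spun at 21,000xg for 90 min, with the supernatant taken as soluble protein. TMTpro 16plex LC-MS/MS with equalised channel sums quantified that protein. Values are log-two fold changes in thermal stability relative to solvent controls, taken from duplicates.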

[2] = compound: CC(=O)c1cnc2ccc(-c3cc(Cl)c(O)c(Cl)c3)nc2c1N[C@H]1CC[C@H](CN(C)C)CC1
Summary of the method: as §1

[3] = compound: CC(C)(C)Cn1c(N)nc2ccc(-c3[nH]c(C(C)(C)C)nc3-c3ccc(F)cc3)nc21 [ralimetinib]
Summary of the method: as §1

[4] = compound: CC(C)(O)CC(=O)NCCn1ccc2ncnc(Nc3ccc(Oc4cccc(C(F)(F)F)c4)c(Cl)c3)c21
Summary of the method: as §1

[5] = compound: CC(C)C1=C2N=C(C=C(N2N=C1)NCC3=CC=CC=C3)NCCCCCCN
Summary of the method: as §1

[6] = compound: CC1=C(C(CC(=O)N1)C2=CC=C(C=C2)C(F)(F)F)C(=O)NC3=C(C=C4C(=C3)C=NN4)F
Summary of the method: as §1

[7] = compound: CC1=C(C2=C(C=C1)C(=O)C3=CC=CC=C3N2CCCN)C
Summary of the method: as §1

[8] = compound: CC1=C(C=C(C=C1)NC(=O)C2=CC(=CC=C2)C(C)(C)C#N)NC3=CC4=C(C=C3)N=CN(C4=O)C
Summary of the method: as §1

[9] = compound: CC1=C(C=C(C=C1)NC(=O)C2=CC(=CC=C2)N(C)C)NC(=O)C3=CC=C(C=C3)O
Summary of the method: as §1

[10] = compound: CC1=CC=C(C=C1)SC2=C3C=C(SC3=CN=C2)C(=O)N
Summary of the method: as §1

[11] = compound: CCCS(=O)(=O)Nc1ccc(F)c(C(=O)c2c[nH]c3ncc(-c4ccc(Cl)cc4)cc23)c1F [vemurafenib]
Summary of the method: as §1

[12] = compound: CCCS(=O)(=O)Nc1ccc(F)c(C(=O)c2c[nH]c3ncc(Cl)cc23)c1F
Summary of the method: as §1

[13] = compound: CCN(CCCOc1ccc2c(Nc3cc(CC(=O)Nc4cccc(F)c4)[nH]n3)ncnc2c1)CCOP(=O)(O)O [barasertib]
Summary of the method: as §1

[14] = compound: CC[C@@H]1C(=O)N(C)c2cnc(Nc3ccc(C(=O)NC4CCN(C)CC4)cc3OC)nc2N1C1CCCC1
Summary of the method: as §1

[15] = compound: CC[C@@H]1C(=O)N(C)c2cnc(Nc3ccc(C(=O)N[C@H]4CC[C@H](N5CCN(CC6CC6)CC5)CC4)cc3OC)nc2N1C(C)C [volasertib]
Summary of the method: as §1

[16] = compound: CCn1c(C(=O)N(C2CC2)C2CC2)cc2c3c(ncn3C)c(Nc3cc(C)n(C)n3)nc21
Summary of the method: as §1

[17] = compound: CCn1cc(-c2ccnc3[nH]c(-c4cccc(CN(C)C)c4)cc23)c(-c2ccc(NC(=O)N(C)C)cc2)n1
Summary of the method: as §1

[18] = compound: CN1CCC(CNc2ccc3ncc(-c4cccc(OC(F)(F)F)c4)n3n2)CC1
Summary of the method: as §1

[19] = compound: CN1CCN(CCOc2cc(OC3CCOCC3)c3c(Nc4c(Cl)ccc5c4OCO5)ncnc3c2)CC1 [saracatinib]
Summary of the method: as §1

[20] = compound: CN1CCN(c2nc(C3=C(c4c[nH]c5ccccc45)C(=O)NC3=O)c3ccccc3n2)CC1 [sotrastaurin]
Summary of the method: as §1

Measured: log2 fold change

TPM1 (UniProt H7BYY1)
active: [18] -0.205
inactive: [1] -0.002 | [2] -0.018 | [3] -0.035 | [4] 0.068 | [5] 0.037 | [6] -0.027 | [7] 0.023 | [8] -0.045 | [9] 0.039 | [10] -0.034 | [11] -0.001 | [12] -0.024 | [13] -0.031 | [14] 0.052 | [15] 0.043 | [16] -0.003 | [17] 0.092 | [19] 0.009 | [20] 0.015

TOP2A isoform 4 (UniProt P11388)
inactive: [1] -0.018 | [2] -0.01 | [3] 0.047 | [4] -0.002 | [5] -0.034 | [6] -0.015 | [7] -0.046 | [8] 0.007 | [9] 0.02 | [10] 0.008 | [11] 0.032 | [12] 0.022 | [13] 0.021 | [14] 0.01 | [15] -0.01 | [16] -0.029 | [17] -0.152 | [18] 0.046 | [19] 0.07 | [20] 0.017

TMOD2 (UniProt Q9NZR1)
inactive: [1] -0.049 | [2] -0.027 | [3] 0.029 | [4] -0.131 | [5] 0.005 | [6] 0.021 | [7] 0.029 | [8] 0.081 | [9] -0.009 | [10] 0.02 | [11] 0.055 | [12] 0.003 | [13] 0.002 | [14] 0.014 | [15] -0.026 | [16] 0.037 | [17] -0.02 | [18] 0.005 | [19] -0.048 | [20] -0.047

TOMM20 (UniProt Q15388)
inactive: [1] -0.039 | [2] -0.013 | [3] -0.017 | [4] -0.058 | [5] 0.024 | [6] 0.079 | [7] -0.018 | [8] 0.103 | [9] 0.02 | [10] 0.009 | [11] -0.009 | [12] 0.012 | [13] -0.017 | [14] -0.018 | [15] 0.044 | [16] -0.022 | [17] -0.024 | [18] -0.066 | [19] -0.029 | [20] -0.021

TOMM34 (UniProt Q15785)
inactive: [1] 0.022 | [2] 0.01 | [3] 0.033 | [4] -0.01 | [5] -0.015 | [6] -0.02 | [7] -0.041 | [8] 0.013 | [9] 0.019 | [10] 0.004 | [11] 0.038 | [12] 0.021 | [13] 0.014 | [14] 0.009 | [15] -0.07 | [16] 0.019 | [17] -0.038 | [18] -0.018 | [19] -0.005 | [20] 0.021

TPP2 (UniProt Q5VZU9)
inactive: [1] 0.073 | [2] -0.025 | [3] -0.018 | [4] 0.046 | [5] -0.041 | [6] 0.056 | [7] 0.018 | [8] -0.049 | [9] -0.017 | [10] 0.061 | [11] 0.003 | [12] 0.061 | [13] -0.002 | [14] 0.014 | [15] 0.003 | [16] -0.005 | [17] -0.147 | [18] 0.088 | [19] -0.022 | [20] 0.044

TMEM199 (UniProt Q8N511)
active: [7] -0.275
inactive: [1] 0.067 | [2] 0.001 | [3] -0.001 | [4] -0.078 | [5] -0.003 | [6] 0.001 | [8] -0.043 | [9] -0.016 | [10] 0.009 | [11] 0 | [12] 0.026 | [13] 0.009 | [14] 0.023 | [15] 0 | [16] -0.003 | [17] -0.06 | [18] 0.054 | [19] 0.048 | [20] 0.035

TNRC6B (UniProt Q9UPQ9)
inactive: [1] 0.027 | [2] -0.052 | [3] -0.016 | [4] -0.021 | [5] -0.01 | [6] 0.029 | [7] -0.01 | [8] -0.144 | [9] 0.018 | [10] -0.057 | [11] 0.076 | [12] 0.04 | [13] 0.054 | [14] 0.099 | [15] -0.022 | [16] 0.009 | [17] 0.007 | [18] 0.036 | [19] 0.069 | [20] 0.066

Retrieved one by one from above, 2 records:
TOMM20 (UniProt Q15388)
inactive: [1] -0.039 | [2] -0.013 | [3] -0.017 | [4] -0.058 | [5] 0.024 | [6] 0.079 | [7] -0.018 | [8] 0.103 | [9] 0.02 | [10] 0.009 | [11] -0.009 | [12] 0.012 | [13] -0.017 | [14] -0.018 | [15] 0.044 | [16] -0.022 | [17] -0.024 | [18] -0.066 | [19] -0.029 | [20] -0.021

TMEM199 (UniProt Q8N511)
active: [7] -0.275
inactive: [1] 0.067 | [2] 0.001 | [3] -0.001 | [4] -0.078 | [5] -0.003 | [6] 0.001 | [8] -0.043 | [9] -0.016 | [10] 0.009 | [11] 0 | [12] 0.026 | [13] 0.009 | [14] 0.023 | [15] 0 | [16] -0.003 | [17] -0.06 | [18] 0.054 | [19] 0.048 | [20] 0.035

Additional entries.

TMEM263 (UniProt Q8WUH6)
inactive: [1] -0.04 | [2] -0.003 | [3] -0.037 | [4] -0.174 | [5] -0.002 | [6] 0.349 | [7] 0.049 | [8] -0.058 | [9] 0.004 | [10] -0.079 | [11] 0.086 | [12] -0.024 | [13] 0.19 | [14] 0.133 | [15] 0.023 | [16] 0.097 | [17] -0.034 | [18] -0.242 | [19] 0.109 | [20] -0.003

TPR (UniProt P12270)
inactive: [1] 0.015 | [2] -0.006 | [3] -0.007 | [4] -0.011 | [5] -0.012 | [6] -0.008 | [7] -0.009 | [8] -0.008 | [9] -0.014 | [10] -0.014 | [11] 0.003 | [12] -0.006 | [13] -0.003 | [14] 0.068 | [15] 0.021 | [16] -0.017 | [17] 0.089 | [18] -0.011 | [19] 0 | [20] 0.005

TNPO2 (UniProt O14787)
inactive: [1] -0.011 | [2] 0.011 | [3] 0.003 | [4] -0.043 | [5] -0.053 | [6] 0.002 | [7] -0.034 | [8] -0.014 | [9] 0.026 | [10] 0 | [11] 0.009 | [12] 0.027 | [13] -0.022 | [14] -0.06 | [15] -0.001 | [16] -0.002 | [17] 0.098 | [18] -0.02 | [19] -0.008 | [20] 0.017

TOP3B (UniProt O95985)
inactive: [1] 0.007 | [2] -0.009 | [3] 0.029 | [4] 0.024 | [5] -0.01 | [6] 0.007 | [7] -0.022 | [8] 0.031 | [9] 0.021 | [10] 0.005 | [11] 0.021 | [12] 0.029 | [13] 0.01 | [14] 0.021 | [15] -0.032 | [16] 0.025 | [17] -0.051 | [18] 0.028 | [19] 0.014 | [20] -0.032

TNPO3 (UniProt Q9Y5L0)
inactive: [1] -0.008 | [2] 0.015 | [3] 0.003 | [4] -0.023 | [5] -0.033 | [6] -0.006 | [7] 0 | [8] -0.015 | [9] 0.003 | [10] 0.008 | [11] 0.024 | [12] 0.003 | [13] 0.019 | [14] 0.009 | [15] -0.008 | [16] 0.008 | [17] 0.005 | [18] 0.023 | [19] -0.001 | [20] -0.004

TOR4A (UniProt Q9NXH8)
inactive: [1] 0.004 | [2] -0.095 | [3] 0.014 | [4] -0.025 | [5] -0.005 | [6] -0.008 | [7] -0.056 | [8] -0.005 | [9] 0.049 | [10] 0.002 | [11] -0.041 | [12] -0.015 | [13] 0.001 | [14] 0.09 | [15] -0.031 | [16] 0.042 | [17] -0.031 | [18] -0.017 | [19] 0.049 | [20] 0.017

TMEM70 (UniProt Q9BUB7)
inactive: [1] 0.001 | [2] -0.026 | [3] 0.012 | [4] -0.063 | [5] -0.002 | [6] -0.01 | [7] 0.01 | [8] 0.103 | [9] 0.058 | [10] 0.003 | [11] -0.016 | [12] 0.029 | [13] 0.063 | [14] -0.072 | [15] -0.004 | [16] -0.027 | [18] 0.027 | [19] 0.023 | [20] 0.122
active: [17] -0.378

TMEM189-UBE2V1 (UniProt I3L0A0)
inactive: [1] 0.041 | [2] 0.004 | [3] 0.042 | [4] -0.04 | [5] 0.012 | [6] -0.007 | [7] -0.005 | [8] 0.032 | [9] -0.053 | [10] 0.003 | [11] 0.056 | [12] 0.011 | [13] 0.05 | [14] 0.024 | [15] 0.046 | [16] -0.011 | [17] -0.033 | [18] 0.068 | [19] 0.021 | [20] -0.034
